Consider two molecules from PMC4628314.

In test [1] the target is T1, OsMPK3 (Oryza sativa) (UniProt A2XFC8).
T1 sequence: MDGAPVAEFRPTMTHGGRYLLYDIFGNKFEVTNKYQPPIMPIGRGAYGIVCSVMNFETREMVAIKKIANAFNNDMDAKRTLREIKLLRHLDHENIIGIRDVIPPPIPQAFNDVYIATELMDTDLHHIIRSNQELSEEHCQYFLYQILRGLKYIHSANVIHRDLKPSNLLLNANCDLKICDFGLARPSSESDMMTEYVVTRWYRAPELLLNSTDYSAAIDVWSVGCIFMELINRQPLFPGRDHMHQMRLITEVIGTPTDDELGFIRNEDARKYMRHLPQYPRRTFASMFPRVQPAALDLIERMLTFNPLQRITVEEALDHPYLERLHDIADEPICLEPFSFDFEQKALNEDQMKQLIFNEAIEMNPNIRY
The test can be described thus: two-hybrid; Matchmaker yeast two-hybrid, yeast AH109 co-transformed with pGADT7 (AD) and pGBKT7 (BD) constructs; colonies from SD/-Leu/-Trp streaked on SD/-Ade/-His/-Leu/-Trp (DDO); both orientations (swapping); blank vectors as controls.

In test [2] the target is OsAux/LAX1 (Oryza sativa auxin influx carrier) (Oryza sativa). The description is as above.

No constants are given. Whether binding was seen depends on the method and setting. Binding can be weak; no strength is given.

As for “OsAux/LAX1 (Oryza sativa auxin influx carrier)”, in test [1], the binding result was “binds”.

B1: OsMPK3 (enzyme, UniProt A2XFC8 1-369)
chain: MDGAPVAEFRPTMTHGGRYLLYDIFGNKFEVTNKYQPPIMPIGRGAYGIVCSVMNFETREMVAIKKIANAFNNDMDAKRTLREIKLLRHLDHENIIGIRDVIPPPIPQAFNDVYIATELMDTDLHHIIRSNQELSEEHCQYFLYQILRGLKYIHSANVIHRDLKPSNLLLNANCDLKICDFGLARPSSESDMMTEYVVTRWYRAPELLLNSTDYSAAIDVWSVGCIFMELINRQPLFPGRDHMHQMRLITEVIGTPTDDELGFIRNEDARKYMRHLPQYPRRTFASMFPRVQPAALDLIERMLTFNPLQRITVEEALDHPYLERLHDIADEPICLEPFSFDFEQKALNEDQMKQLIFNEAIEMNPNIRY
B1: the binding entry in test [2] was “binds”.
